Test system: MOLM14
Test: IC50 determination (proliferation assay, CellTiter-Blue)
Assay type: cell-based
Conditions: Homo sapiens, MOLM-14
Protocol: Cell lines were seeded into 96-well plates the afternoon prior to treatment. Approximately 18 hours later, compounds were diluted in dimethyl sulfoxide (DMSO) and added to cells. Plates were incubated for 72 hours and cells viability determined with CellTiter-Blue Cell Viability Assay (Promega, Madison, WI). Plates were read after 4 additional hours of incubation at 37° C. using plate reader (Bio-Tek, Winooski. VT). Data was analyzed and graphed using GraphPad Prism Software (Graphpad. La Jolla, CA).
Compounds HSN352, HSN353. […] These compounds' proliferation inhibition (IC50) against MV4-11 and MOLM-14 (FLT3-driven AML cell lines) were determined (Table 6B).

IC50: 7.37 ± 0.1 nM
SMILES: CO[C@@H]1[C@H](N(C)C(=O)c2ccccc2)C[C@H]2O[C@]1(C)n1c3ccccc3c3c4c(c5c6ccccc6n2c5c31)C(=O)NC4 [Midostaurin, midostaurin, reference compound]
